Our source for the binding values is article PMC7758216.

By UniProt entry, the sequences of proteins in these tests, tags left out.
UniProt P51159: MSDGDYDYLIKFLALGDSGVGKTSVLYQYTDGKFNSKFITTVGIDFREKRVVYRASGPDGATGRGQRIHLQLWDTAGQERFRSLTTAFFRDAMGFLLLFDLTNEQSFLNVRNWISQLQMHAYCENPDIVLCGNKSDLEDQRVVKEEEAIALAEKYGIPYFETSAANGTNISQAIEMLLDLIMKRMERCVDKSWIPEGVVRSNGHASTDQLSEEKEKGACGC

No constants are given. Whether binding was seen depends on the method and setting. Binding seen in cells or lysates may run through a third protein. Some entries that bind do so weakly or less than the wild type. Tags and fused reporters may be left off the sequences shown.

The assay concerns the target FLAG-tagged RAB27A (wild-type) (human) (UniProt P51159). As to the kind of experiment: co-IP; COS-7 cells co-transfected 24 h; lysates (50 mM HEPES-KOH pH 7.2, 150 mM NaCl, 1 mM MgCl2, 1% Triton X-100) incubated 1 h at 4°C with anti-FLAG tag antibody-conjugated agarose beads (FLAG-RAB27A precipitated); T7-tagged effector detected by anti-T7 immunoblot.

B1: T7-tagged MUNC13-4 (protein, UniProt B2RUP2 1-1085)
chain: MATHLSHPQRRPLLRQAIKIRRRRVRDLQDPPPQATQEVQVQSHHFSPEERDLLYEEALYTVLHRLGQPEPNHVKEASELLSYLQEAFQVQPEEHQQMLRRVRELEKPVFCLKATVKQAKGILGKDVSGFSDPYCLLGIEQKVGVAEGSPVSRRRQKAVVKHTIPEEETHRTQVKSQTLNPVWDETFILEFEDIANASFHLDMWDLDTVESVRQKLGELTDLHGLRRIFKEARKDKGQDDFLGNVVLRLQDLRCREDQWFPLEPCTETYPDRGQCHLQFQFIHKRRATAASRSQPSYTVHFHLLQQLVSHEVTQHQAGSTSWDASLSPQAVTILFLHATQKDLSDFHQSMAQWLAYSRLYQSLEFPSSCLLHPITSIEYQWIQGRLKAEQREELATSFTSLLAYGLSLIRKFRSVFPLSVSDSPSRLQSLLRVLVQMCKMKAFGELCPDSAPLSQLVSEALRMGTVEWFHLMQQHHQPMVQGILEAGKALLNLVQDVMGDLYQCRRTWNKIFHNVLKIDLFSMAFLELQWLVAKRVQDHTVAAGNLVSPDIGESLFQLYVSLKELCQLGPVPSDSREVLALDGFHRWFQPAIPSWLQKTYSVALERVQRAVQMDTLVPLGELTKHSTSAVDLSTCFAQISHTARQLDWPDPEEAFMITVKFVEDTCRLALVYCSLIKARARELSAVQKDQSQAADMLCVVVNNMEQLRLIIDKLPTQLAWEALEQRVGAVLEEGQLQNTLHAQLQGALAGLGHEIRTGVRTLAEQLEVGIATHIQKLIGVKESVLPEDAILPLMKFLEVKLCYMNTNLVQENFSSLLTLLWTHTLTVLVEVASSQRSSSLASGRLKVALQNLEVCFHAEGCGLPPEALHTDTFQALQNDLELQAASSRELIQKYFCSRIQQQAETTSERLGAVTVKVSYRASEQRLRVELLSASSLLPLDSNGSSDPFVQLTLEPRHEFPEVAPRETQKHKKELHPLFDETFEFLVPAEPCQKAWACLLLTVLDHDRLGADDLEGEAFLPLCRVPGLTDCAEPGEAPQMRLPLTYPAPNGDPILRLLESRKGDREAQAFVKLRRQRAKQASQHAP
Take B1: the binding entry is “binds”.

B2: T7-tagged SLP2-A (protein, UniProt Q99N50-1 1-950)
chain: MIDLSFLTEEEQDAILKVLQRDAALKRAEEERVRHLPEKIKDDQQLKNMSGQWFYEAKAKRHRDKIHGADIIRASMRRKKLPAAAEQNKDTAMRAKESWVNNVNKDAVLPPEIAVVEEPEDDTDPAGPSSSLVDPASSVIDMSQESTRTPAVSLPKQRKNPFNSPKLPEDHSLQQTKPEQSKTGKAGLFQISKEGELSESKEKSSIPDMPRQQLEKPKQTVSTEPENASHTKAPIPKARKLIYKSNDLEKDDNQSFPRQRRDSLNARGAPRGILKRNSSSSSTDSETLRLNYNLDPKSKILSPGLTIHERISEKEFSLEDDSSTSSLEPLKHVRFSAVKNELPQSPRPVLGQEVGEFTVLESDQLQNGTEDAGDIEEFQNHPELSHKTPLSHYQLVSSPSDSGREREQLMSSGSAPRDEIPCHSDILPTGPQCVESSSVINGQQEKSSHFTKLPSELSKSPSDELTQCGEPEPSQTADHSFRDHRQGSEEEHSPVLKTLERRAARKLPSKSLEDIPSDSSNQAKVDNLPEELVRSAEDDQKADQEPDTNECIPGISTVPSLPDNQFSHPDKLKRMSKSVPAFLQDESDDRETDTASESSYQLRRYKKSPSSLTNLSSSSGMTSLSSASGSVMSVYSGDFGNLEVKGSVQFALDYVESLKELHVFVAQCKDLAAADVKKQRSDPYVKTYLLPDKGKMGKKKTLVVKKTLNPVYNEILRYKIERQFLKTQKLNLSVWHRDTFKRNSFLGEVELDLETWDWDSKQNKQLKWYPLKRKTAPVALETENRGEMKLALQYVPEPSPGKKLPTTGEVHIWVKECLDLPLLRGSHLNSFVKCTILPDTSRKSRQKTRAVGKTTNPVFNHTMVYDGFRPEDLMEACVELTVWDHYKLTNQFLGGLRIGFGTGKSYGTEVDWMDSTSEEVALWEKMVNSPNTWVEATLPLRMLLIAKLSK
Take B2: the binding result is “binds”.
